Measured values: article PMC5027102
Results are given in words; binding and its absence hold for the method and conditions named. In cells and extracts the contact can be indirect. Some results given as binding are weak or reduced against the parent protein; the word gives no strength.

Experiments:
[1] = target: T1, caveolin-1 (mouse (endogenous in mHippoE-14 cells and brain)), P49817; experiment: proximity ligation; Duolink PLA on PFA-fixed mHippoE-14 cells with antibodies to IR and Cav-1; cells exposed to saline or 5 μM ADDLs for 30 min, with or without GENZ pre-treatment; details: remark: other sources report otherwise
T1 chain: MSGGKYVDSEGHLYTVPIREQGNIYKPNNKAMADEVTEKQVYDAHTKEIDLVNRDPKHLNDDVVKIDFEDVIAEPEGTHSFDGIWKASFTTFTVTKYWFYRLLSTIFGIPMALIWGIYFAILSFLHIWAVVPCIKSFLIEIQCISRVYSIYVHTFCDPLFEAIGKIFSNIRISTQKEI

[2] = target: T1, caveolin-1 (mouse (endogenous in …)); experiment: proximity ligation; Duolink PLA on 5 μm paraffin sections of mouse brain (7 months old Ugcgf/f, 5xFAD and 5xFAD//Cre mice), antigen retrieval in citrate buffer pH 6.0; antibodies to IR and Cav-1; spots counted in cortical neurons; details: remark: other sources report otherwise

B1: insulin receptor (IR), P15208 28-748; P15208 753-1372 (receptor)
chain 1: HLYPGEVCPGMDIRNNLTRLHELENCSVIEGHLQILLMFKTRPEDFRDLSFPKLIMITDYLLLFRVYGLESLKDLFPNLTVIRGSRLFFNYALVIFEMVHLKELGLYNLMNITRGSVRIEKNNELCYLATIDWSRILDSVEDNYIVLNKDDNEECGDVCPGTAKGKTNCPATVINGQFVERCWTHSHCQKVCPTICKSHGCTAEGLCCHKECLGNCSEPDDPTKCVACRNFYLDGQCVETCPPPYYHFQDWRCVNFSFCQDLHFKCRNSRKPGCHQYVIHNNKCIPECPSGYTMNSSNLMCTPCLGPCPKVCQILEGEKTIDSVTSAQELRGCTVINGSLIINIRGGNNLAAELEANLGLIEEISGFLKIRRSYALVSLSFFRKLHLIRGETLEIGNYSFYALDNQNLRQLWDWSKHNLTITQGKLFFHYNPKLCLSEIHKMEEVSGTKGRQERNDIALKTNGDQASCENELLKFSFIRTSFDKILLRWEPYWPPDFRDLLGFMLFYKEAPYQNVTEFDGQDACGSNSWTVVDIDPPQRSNDPKSQTPSHPGWLMRGLKPWTQYAIFVKTLVTFSDERRTYGAKSDIIYVQTDATNPSVPLDPISVSNSSSQIILKWKPPSDPNGNITHYLVYWERQAEDSELFELDYCLKGLKLPSRTWSPPFESDDSQKHNQSEYDDSASECCSCPKTDSQILKELEESSFRKTFEDYLHNVVFVPRPS
chain 2: SLEEVGNVTATTLTLPDFPNVSSTIVPTSQEEHRPFEKVVNKESLVISGLRHFTGYRIELQACNQDSPDERCSVAAYVSARTMPEAKADDIVGPVTHEIFENNVVHLMWQEPKEPNGLIVLYEVSYRRYGDEELHLCVSRKHFALERGCRLRGLSPGNYSVRVRATSLAGNGSWTEPTYFYVTDYLDVPSNIAKIIIGPLIFVFLFSVVIGSIYLFLRKRQPDGPMGPLYASSNPEYLSASDVFPSSVYVPDEWEVPREKITLLRELGQGSFGMVYEGNAKDIIKGEAETRVAVKTVNESASLRERIEFLNEASVMKGFTCHHVVRLLGVVSKGQPTLVVMELMAHGDLKSHLRSLRPDAENNPGRPPPTLQEMIQMTAEIADGMAYLNAKKFVHRDLAARNCMVAHDFTVKIGDFGMTRDIYETDYYRKGGKGLLPVRWMSPESLKDGVFTASSDMWSFGVVLWEITSLAEQPYQGLSNEQVLKFVMDGGYLDPPDNCPERLTDLMRMCWQFNPKMRPTFLEIVNLLKDDLHPSFPEVSFFYSEENKAPESEELEMEFEDMENVPLDRSSHCQREEAGGREGGSSLSIKRTYDEHIPYTHMNGGKKNGRVLTLPRSNPS
binding [1]: binds
binding [2]: binds
